Data reported in US20110263509A1 (Haemopep Pharma GmbH, priority 2008, published 2011).

Test: general procedure: Fmoc solid-phase peptide synthesis; Wang resin loaded with Fmoc-leucine (0.69 mmol/g, 100-200 mesh); HBTU/HOBt/DIEA in NMP
Details: whole synthesis, RP-HPLC peak integration, acetate

## PEPTIDE1{S.V.S.E.I.Q.L.M.H.N.L.G.K.H.L.N.S.M.E.R.V.E.W.L.R.K.K.L.Q.D.V.H.N.F.V.A.L}$$$$V2.0 [hPTH-1-37]
  final HPLC purity: ≧98%

Some peptides are written in HELM: one residue between dots, names in brackets for other building blocks, links after the first $.
